The experiment deals with PTPN13, transiently overexpressed (UniProt Q12923). Kind of experiment: affinity purification with mass spectrometry; CoIP with anti-PTPN13 antibody and IgG control from nuclear extracts of PLC/PRF/5 cells with transient overexpression vector or control vector, silver staining, mass spectrometry; also LM3-OE vs empty and Huh7, SK-hep1 and SMMC-7721 knockdown vs control pairs.

Amino acid sequences for entries named in this document (tags omitted).
UniProt Q12923: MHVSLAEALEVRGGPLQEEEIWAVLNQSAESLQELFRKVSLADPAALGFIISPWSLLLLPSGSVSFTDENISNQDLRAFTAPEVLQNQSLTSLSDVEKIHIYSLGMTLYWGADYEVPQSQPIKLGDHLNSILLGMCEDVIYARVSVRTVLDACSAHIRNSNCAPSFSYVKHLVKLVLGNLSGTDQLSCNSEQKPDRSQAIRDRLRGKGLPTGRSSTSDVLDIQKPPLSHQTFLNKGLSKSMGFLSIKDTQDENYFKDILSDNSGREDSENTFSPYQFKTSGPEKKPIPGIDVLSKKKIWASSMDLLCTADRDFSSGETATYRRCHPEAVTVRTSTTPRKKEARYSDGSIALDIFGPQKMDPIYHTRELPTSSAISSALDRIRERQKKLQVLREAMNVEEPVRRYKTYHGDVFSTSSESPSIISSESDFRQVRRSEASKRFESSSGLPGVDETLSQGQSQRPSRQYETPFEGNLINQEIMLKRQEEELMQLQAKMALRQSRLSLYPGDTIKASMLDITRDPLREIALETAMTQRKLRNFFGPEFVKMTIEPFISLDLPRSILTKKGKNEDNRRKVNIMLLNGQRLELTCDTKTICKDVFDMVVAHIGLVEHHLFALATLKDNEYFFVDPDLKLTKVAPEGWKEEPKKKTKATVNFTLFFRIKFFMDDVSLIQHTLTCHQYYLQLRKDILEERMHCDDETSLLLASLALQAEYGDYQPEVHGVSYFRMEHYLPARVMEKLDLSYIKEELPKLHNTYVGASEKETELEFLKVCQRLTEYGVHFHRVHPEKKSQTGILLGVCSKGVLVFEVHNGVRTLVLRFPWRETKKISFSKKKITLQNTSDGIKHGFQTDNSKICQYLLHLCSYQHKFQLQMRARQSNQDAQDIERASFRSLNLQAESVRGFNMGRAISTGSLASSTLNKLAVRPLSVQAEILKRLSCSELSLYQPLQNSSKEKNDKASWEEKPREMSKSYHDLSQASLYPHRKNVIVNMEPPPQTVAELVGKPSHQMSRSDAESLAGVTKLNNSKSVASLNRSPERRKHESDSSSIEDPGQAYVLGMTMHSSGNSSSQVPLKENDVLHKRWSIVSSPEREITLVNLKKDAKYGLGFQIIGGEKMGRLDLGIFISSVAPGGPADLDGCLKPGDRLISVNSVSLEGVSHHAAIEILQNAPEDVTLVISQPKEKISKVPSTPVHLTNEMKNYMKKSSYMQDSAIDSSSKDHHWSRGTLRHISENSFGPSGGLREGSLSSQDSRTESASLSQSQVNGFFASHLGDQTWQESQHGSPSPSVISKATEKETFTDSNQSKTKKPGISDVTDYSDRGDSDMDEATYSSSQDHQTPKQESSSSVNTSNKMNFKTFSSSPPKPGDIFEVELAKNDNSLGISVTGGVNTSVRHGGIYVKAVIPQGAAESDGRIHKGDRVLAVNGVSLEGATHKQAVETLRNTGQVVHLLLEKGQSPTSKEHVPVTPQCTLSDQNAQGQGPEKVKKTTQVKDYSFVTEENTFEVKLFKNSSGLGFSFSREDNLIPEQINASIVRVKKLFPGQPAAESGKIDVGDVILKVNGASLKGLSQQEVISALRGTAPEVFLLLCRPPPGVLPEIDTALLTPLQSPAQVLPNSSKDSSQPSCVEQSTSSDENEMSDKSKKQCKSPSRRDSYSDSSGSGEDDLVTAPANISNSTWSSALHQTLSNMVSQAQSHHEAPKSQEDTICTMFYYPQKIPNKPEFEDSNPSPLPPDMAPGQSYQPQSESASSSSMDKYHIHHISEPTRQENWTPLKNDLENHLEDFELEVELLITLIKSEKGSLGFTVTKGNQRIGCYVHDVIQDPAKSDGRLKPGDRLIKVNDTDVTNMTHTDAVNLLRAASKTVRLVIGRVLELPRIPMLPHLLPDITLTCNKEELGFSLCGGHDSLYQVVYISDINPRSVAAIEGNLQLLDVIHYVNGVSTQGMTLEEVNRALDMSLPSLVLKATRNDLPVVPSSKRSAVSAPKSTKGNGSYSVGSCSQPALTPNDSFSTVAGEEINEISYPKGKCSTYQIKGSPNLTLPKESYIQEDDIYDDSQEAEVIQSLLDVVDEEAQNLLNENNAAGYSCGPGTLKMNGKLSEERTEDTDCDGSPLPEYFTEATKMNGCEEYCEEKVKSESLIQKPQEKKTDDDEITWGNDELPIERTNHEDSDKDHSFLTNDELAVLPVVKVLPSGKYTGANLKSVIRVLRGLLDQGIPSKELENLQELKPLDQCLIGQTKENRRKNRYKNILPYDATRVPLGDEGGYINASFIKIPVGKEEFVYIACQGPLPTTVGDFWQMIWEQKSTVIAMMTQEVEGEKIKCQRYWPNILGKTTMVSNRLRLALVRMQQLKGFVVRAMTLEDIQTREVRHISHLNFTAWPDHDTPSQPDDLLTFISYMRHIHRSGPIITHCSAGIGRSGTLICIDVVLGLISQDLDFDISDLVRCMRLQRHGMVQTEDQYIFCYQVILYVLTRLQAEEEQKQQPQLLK
UniProt O00425: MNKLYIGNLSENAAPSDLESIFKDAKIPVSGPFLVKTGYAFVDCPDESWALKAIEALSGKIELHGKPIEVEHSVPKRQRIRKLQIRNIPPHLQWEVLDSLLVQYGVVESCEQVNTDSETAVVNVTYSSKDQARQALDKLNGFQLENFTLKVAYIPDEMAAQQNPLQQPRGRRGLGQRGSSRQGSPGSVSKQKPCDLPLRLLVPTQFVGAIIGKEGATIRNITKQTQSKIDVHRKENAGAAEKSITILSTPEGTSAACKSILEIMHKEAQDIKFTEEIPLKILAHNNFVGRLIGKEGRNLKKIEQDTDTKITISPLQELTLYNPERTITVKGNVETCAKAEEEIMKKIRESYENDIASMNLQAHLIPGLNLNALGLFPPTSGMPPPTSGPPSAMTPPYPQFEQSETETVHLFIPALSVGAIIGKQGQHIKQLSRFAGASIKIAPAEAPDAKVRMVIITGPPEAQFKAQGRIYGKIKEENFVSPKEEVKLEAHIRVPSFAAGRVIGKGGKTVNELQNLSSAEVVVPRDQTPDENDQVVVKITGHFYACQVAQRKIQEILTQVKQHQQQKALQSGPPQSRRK
UniProt P14618: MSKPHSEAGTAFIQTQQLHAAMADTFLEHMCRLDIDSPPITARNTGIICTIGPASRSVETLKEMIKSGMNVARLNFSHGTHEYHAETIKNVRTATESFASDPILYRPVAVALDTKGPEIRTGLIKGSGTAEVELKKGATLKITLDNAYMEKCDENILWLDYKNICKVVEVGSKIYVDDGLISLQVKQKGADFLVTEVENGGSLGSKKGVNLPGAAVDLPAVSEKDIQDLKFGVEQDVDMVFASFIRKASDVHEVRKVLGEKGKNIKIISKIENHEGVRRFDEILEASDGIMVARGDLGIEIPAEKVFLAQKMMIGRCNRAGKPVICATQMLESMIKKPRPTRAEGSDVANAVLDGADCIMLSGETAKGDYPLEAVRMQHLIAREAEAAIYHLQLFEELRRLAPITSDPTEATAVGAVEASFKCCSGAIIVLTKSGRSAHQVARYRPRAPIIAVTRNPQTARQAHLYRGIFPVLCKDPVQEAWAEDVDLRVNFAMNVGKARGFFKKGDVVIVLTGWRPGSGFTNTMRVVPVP

These are yes or no findings as the source states them, for the method shown. Binding seen in cells or lysates may run through a third protein. A yes stands for co-enrichment or nearness to the bait. Other partners may have been found.

“IGF2BP3, endogenous (from UniProt O00425 1-579)”: the binding result was “binds”.
The value for “PKM, endogenous (from UniProt P14618 1-531) (enzyme)” was “binds”.
